According to the supplement of paper PMC10849652:
This is one part of the list.

Amino acid sequences for entries named in this document (tags omitted). A change or cut given only in a name is not applied to a line headed by its entry.
UniProt Q9Y4X0: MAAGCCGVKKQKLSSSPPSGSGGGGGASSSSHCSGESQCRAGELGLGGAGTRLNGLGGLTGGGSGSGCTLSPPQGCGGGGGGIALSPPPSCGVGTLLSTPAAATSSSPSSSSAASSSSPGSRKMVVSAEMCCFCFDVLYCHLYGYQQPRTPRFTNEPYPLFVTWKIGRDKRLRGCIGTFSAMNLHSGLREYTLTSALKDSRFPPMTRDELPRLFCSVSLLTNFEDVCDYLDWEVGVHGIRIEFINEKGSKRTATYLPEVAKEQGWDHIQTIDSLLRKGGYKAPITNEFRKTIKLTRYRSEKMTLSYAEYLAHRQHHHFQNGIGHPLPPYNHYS
UniProt Q9BT22: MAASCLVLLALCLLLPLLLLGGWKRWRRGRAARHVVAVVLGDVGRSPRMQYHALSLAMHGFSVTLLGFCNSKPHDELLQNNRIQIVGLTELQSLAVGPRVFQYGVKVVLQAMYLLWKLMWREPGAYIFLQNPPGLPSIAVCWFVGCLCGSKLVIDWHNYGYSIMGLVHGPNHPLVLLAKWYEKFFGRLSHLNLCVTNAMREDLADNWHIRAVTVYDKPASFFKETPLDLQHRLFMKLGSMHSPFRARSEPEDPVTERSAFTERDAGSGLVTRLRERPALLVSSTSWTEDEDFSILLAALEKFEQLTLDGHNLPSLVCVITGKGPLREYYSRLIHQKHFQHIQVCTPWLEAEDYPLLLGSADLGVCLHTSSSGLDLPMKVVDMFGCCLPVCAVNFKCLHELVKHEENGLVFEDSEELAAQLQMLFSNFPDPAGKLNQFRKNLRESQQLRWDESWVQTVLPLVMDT
UniProt Q9UJX6, whole entry, looked up: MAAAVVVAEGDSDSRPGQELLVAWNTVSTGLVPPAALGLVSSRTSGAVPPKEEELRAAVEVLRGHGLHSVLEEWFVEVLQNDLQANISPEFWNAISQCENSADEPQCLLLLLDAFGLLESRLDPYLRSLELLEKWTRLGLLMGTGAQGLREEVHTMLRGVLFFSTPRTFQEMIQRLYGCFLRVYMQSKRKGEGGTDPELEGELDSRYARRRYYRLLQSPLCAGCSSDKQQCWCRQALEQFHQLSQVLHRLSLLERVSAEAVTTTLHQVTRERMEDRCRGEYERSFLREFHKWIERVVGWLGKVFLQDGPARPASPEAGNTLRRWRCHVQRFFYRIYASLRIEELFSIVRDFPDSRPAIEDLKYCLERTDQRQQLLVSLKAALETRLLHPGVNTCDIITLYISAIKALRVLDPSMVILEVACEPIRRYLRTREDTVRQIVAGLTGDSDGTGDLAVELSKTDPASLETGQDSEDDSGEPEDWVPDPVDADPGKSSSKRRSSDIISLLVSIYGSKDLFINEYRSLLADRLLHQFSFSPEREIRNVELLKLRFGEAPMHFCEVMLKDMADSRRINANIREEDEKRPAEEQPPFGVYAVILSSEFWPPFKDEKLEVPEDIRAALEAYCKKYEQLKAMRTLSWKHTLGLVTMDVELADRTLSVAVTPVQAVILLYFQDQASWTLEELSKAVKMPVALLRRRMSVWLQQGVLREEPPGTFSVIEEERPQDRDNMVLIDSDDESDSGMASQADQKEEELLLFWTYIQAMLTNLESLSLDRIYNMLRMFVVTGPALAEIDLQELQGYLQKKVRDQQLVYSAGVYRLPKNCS
UniProt Q01432: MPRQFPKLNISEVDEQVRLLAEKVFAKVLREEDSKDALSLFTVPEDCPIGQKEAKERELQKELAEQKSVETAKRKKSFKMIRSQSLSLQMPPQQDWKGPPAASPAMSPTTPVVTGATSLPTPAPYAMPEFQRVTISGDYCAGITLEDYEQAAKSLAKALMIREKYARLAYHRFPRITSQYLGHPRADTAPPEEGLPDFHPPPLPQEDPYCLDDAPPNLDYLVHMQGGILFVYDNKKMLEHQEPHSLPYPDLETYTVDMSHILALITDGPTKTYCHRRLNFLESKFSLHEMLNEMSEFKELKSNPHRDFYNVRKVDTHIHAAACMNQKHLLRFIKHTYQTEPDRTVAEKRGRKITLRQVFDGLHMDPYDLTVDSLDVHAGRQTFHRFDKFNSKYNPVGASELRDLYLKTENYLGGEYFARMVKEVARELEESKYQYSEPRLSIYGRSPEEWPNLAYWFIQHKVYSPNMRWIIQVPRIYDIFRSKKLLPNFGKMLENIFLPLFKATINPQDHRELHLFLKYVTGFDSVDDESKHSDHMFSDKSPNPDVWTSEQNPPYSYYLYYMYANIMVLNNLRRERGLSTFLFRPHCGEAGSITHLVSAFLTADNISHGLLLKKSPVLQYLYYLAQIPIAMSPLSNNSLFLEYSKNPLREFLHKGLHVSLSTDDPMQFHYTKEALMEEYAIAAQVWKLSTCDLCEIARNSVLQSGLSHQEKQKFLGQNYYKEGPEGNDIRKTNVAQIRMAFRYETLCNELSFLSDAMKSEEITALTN
UniProt Q9BTT0: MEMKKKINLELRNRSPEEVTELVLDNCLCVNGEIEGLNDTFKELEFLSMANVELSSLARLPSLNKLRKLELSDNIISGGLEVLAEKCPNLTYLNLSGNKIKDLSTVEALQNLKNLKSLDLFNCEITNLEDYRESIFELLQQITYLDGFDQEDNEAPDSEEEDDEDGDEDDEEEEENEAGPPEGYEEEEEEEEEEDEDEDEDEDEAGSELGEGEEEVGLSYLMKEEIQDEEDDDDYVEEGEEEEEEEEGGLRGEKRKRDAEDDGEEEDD
UniProt Q9H8Y5: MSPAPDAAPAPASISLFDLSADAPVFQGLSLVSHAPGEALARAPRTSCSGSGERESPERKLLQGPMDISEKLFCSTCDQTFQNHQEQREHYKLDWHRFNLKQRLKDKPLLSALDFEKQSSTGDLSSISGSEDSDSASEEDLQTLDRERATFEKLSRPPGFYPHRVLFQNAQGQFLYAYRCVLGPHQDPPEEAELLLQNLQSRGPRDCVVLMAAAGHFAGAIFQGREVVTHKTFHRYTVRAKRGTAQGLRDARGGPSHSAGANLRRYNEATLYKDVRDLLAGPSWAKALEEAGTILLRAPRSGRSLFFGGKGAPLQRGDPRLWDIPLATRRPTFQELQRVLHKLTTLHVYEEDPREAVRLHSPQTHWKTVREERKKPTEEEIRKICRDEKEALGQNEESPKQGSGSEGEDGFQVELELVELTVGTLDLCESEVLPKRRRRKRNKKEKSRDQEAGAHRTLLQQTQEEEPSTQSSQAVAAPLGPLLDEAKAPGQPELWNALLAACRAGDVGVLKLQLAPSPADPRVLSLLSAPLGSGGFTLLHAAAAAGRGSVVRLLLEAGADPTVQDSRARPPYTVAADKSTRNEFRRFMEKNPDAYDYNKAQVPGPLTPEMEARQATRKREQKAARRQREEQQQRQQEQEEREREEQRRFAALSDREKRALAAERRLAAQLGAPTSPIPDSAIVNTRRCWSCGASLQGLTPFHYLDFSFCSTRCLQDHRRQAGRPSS
UniProt O75843: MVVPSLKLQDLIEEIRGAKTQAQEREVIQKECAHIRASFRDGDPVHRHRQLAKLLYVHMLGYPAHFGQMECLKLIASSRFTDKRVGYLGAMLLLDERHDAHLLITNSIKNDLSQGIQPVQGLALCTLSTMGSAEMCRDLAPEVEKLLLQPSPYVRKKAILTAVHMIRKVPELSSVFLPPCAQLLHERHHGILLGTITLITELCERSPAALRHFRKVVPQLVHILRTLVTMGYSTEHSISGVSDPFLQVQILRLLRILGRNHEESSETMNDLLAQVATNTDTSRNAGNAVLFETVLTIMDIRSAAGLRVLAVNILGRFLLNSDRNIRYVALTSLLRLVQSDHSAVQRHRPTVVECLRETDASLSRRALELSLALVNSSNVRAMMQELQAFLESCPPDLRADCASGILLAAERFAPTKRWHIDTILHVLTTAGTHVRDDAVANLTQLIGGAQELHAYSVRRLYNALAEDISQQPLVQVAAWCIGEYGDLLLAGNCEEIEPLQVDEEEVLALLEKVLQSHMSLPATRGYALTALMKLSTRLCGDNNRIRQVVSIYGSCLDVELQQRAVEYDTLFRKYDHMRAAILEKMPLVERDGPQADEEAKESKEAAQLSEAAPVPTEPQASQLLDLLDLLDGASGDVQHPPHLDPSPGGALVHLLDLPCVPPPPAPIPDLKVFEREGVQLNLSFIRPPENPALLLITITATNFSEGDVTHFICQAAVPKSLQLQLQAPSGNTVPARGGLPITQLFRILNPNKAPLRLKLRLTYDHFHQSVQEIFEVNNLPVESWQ
UniProt Q9BXS5: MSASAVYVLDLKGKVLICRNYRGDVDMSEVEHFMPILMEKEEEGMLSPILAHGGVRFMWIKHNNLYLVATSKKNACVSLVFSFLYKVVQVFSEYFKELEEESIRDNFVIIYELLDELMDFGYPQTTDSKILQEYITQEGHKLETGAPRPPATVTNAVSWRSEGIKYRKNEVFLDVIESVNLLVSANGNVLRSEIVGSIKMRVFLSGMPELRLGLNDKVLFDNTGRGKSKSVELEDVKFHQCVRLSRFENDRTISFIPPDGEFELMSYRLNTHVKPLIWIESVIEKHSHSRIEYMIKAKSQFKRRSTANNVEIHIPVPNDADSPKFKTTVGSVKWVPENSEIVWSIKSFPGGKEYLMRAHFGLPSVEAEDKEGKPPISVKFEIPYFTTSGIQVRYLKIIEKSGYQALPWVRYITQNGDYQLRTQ
UniProt Q9UPM8: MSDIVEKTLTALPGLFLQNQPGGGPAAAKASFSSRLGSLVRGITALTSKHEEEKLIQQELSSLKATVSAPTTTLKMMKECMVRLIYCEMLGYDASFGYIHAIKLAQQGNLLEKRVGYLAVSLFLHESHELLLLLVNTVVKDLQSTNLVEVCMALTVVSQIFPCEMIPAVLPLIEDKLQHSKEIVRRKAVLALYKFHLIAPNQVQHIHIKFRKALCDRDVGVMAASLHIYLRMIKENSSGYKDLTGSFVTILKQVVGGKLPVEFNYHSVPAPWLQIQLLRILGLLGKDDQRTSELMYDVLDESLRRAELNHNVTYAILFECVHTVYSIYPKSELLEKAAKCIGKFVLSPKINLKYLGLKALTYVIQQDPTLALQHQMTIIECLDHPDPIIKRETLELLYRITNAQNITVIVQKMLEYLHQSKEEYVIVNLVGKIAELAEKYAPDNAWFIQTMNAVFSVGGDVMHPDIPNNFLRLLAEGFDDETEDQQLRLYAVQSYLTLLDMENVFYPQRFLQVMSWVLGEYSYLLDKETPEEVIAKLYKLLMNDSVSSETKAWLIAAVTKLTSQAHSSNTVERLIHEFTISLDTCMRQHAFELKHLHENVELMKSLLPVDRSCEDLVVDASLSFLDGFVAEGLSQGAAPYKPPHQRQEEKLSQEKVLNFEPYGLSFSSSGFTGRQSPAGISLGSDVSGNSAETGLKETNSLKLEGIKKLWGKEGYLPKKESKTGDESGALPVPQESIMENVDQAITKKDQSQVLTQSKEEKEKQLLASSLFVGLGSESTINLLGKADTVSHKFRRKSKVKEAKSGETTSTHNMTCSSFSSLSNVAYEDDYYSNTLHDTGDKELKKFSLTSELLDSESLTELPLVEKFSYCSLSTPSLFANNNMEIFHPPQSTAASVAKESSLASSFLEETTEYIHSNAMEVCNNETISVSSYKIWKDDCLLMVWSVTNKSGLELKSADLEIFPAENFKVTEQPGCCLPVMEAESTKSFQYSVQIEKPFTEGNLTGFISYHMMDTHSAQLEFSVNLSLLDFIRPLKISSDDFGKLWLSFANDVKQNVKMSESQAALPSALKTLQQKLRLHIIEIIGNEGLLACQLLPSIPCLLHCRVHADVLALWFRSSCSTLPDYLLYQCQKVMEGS
UniProt Q9BVK2: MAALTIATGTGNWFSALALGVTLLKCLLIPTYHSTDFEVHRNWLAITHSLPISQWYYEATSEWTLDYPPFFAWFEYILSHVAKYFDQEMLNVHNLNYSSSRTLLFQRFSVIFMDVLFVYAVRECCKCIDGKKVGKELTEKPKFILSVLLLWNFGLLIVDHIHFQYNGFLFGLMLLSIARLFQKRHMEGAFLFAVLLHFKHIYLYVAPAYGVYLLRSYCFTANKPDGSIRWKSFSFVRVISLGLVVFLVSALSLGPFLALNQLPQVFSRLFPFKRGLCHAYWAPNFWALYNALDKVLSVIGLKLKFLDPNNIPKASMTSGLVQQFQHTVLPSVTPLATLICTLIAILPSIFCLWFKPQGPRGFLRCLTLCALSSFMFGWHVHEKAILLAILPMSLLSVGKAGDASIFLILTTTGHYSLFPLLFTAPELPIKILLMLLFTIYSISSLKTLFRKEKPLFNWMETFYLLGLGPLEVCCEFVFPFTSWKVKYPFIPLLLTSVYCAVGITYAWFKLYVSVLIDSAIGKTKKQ
UniProt P13716: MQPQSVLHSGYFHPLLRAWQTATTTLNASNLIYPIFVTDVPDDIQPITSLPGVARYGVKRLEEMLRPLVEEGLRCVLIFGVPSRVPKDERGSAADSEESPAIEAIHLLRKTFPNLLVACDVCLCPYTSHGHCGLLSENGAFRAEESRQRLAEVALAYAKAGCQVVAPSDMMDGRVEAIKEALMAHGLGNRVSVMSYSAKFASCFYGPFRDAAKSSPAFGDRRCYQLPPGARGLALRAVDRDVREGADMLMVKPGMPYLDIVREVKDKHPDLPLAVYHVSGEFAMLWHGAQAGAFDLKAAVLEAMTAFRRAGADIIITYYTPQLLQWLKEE

How the values were obtained:
Experiment in all cases: log2 fold change, soluble protein after heating vs DMSO (PISA); higher = thermal stabilisation; K562 lysate, 10 uM; active = over 0.2 and 3.5 SD of the protein, either way, in both replicates (recomputed)
lapatinib = compound: CS(=O)(=O)CCNCc1ccc(-c2ccc3ncnc(Nc4ccc(OCc5cccc(F)c5)c(Cl)c4)c3c2)o1 [lapatinib]
How it was run: (§1)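 Dounce homogenisation of K562 pellets in PBS pH 7.4 with 1 mM MgCl2 produced a crude extract, used at 1 mg/mL protein. Exposure to 10 μM compound lasted 30 min, and aliquots were then heated for 3 min across 48°C-58°C, pooled and brought to 0.5% NP-40 at 4°C. The supernatant after 21,000xg for 90 min was quantified by TMTpro 16plex LC-MS/MS with channel sums equalised. Duplicate values are given as log-two fold change in thermal stability relative to solvent controls.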

pictilisib = compound: CS(=O)(=O)N1CCN(Cc2cc3nc(-c4cccc5[nH]ncc45)nc(N4CCOCC4)c3s2)CC1 [pictilisib]
How it was run: as §1

crizotinib = compound: C[C@@H](Oc1cc(-c2cnn(C3CCNCC3)c2)cnc1N)c1c(Cl)ccc(F)c1Cl [crizotinib]
How it was run: as §1

[1] = compound: C[C@H](C1=CC=C(C=C1)C(=O)NC2=C3C=CNC3=NC=C2)N
How it was run: as §1

duvelisib = compound: C[C@H](Nc1ncnc2nc[nH]c12)c1cc2cccc(Cl)c2c(=O)n1-c1ccccc1 [duvelisib]
How it was run: as §1

gandotinib = compound: Cc1cc(Nc2cc(CN3CCOCC3)c3nc(C)c(Cc4ccc(Cl)cc4F)n3n2)n[nH]1 [gandotinib]
How it was run: as §1

tozasertib = compound: Cc1cc(Nc2cc(N3CCN(C)CC3)nc(Sc3ccc(NC(=O)C4CC4)cc3)n2)n[nH]1 [tozasertib]
How it was run: as §1

doramapimod = compound: Cc1ccc(-n2nc(C(C)(C)C)cc2NC(=O)Nc2ccc(OCCN3CCOCC3)c3ccccc23)cc1 [doramapimod]
How it was run: as §1

bafetinib = compound: Cc1ccc(NC(=O)c2ccc(CN3CC[C@H](N(C)C)C3)c(C(F)(F)F)c2)cc1Nc1nccc(-c2cncnc2)n1 [bafetinib]
How it was run: as §1

[2] = compound: Cc1cccc(CC(=O)N2CCc3c2ccc(-c2cn(C)c4ncnc(N)c24)c3F)n1
How it was run: as §1

nilotinib = compound: Cc1cn(-c2cc(NC(=O)c3ccc(C)c(Nc4nccc(-c5cccnc5)n4)c3)cc(C(F)(F)F)c2)cn1 [nilotinib]
How it was run: as §1

[3] = compound: Cc1nc(Nc2n[nH]c3c2CN(C(=O)N[C@H](CN(C)C)c2ccccc2)C3(C)C)c2sccc2n1
How it was run: as §1

dasatinib = compound: Cc1nc(Nc2ncc(C(=O)Nc3c(C)cccc3Cl)s2)cc(N2CCN(CCO)CC2)n1 [dasatinib]
How it was run: as §1

[4] = compound: Cc1ncc(-c2ccnc(Nc3ccc(S(C)(=O)=O)cc3)n2)n1C(C)C
How it was run: as §1

[5] = compound: Cn1cc(-c2ccc3c(c2)CCN3C(=O)Cc2cccc(C(F)(F)F)c2)c2c(N)ncnc21
How it was run: as §1

quisinostat = compound: Cn1cc(CNCC2CCN(c3ncc(C(=O)NO)cn3)CC2)c2ccccc21 [quisinostat]
How it was run: as §1

tipifarnib = compound: Cn1cncc1[C@@](N)(c1ccc(Cl)cc1)c1ccc2c(c1)c(-c1cccc(Cl)c1)cc(=O)n2C [tipifarnib]
How it was run: as §1

[6] = compound: NC(=O)Nc1cc(-c2cccc(F)c2)sc1C(=O)N[C@H]1CCCNC1
How it was run: as §1

[7] = compound: NC(=O)c1cnc(N[C@@H]2CCCC[C@@H]2N)nc1Nc1cccc(-n2nccn2)c1
How it was run: as §1

[8] = compound: NC1(c2ccc(-c3nc4ccn5c(=O)[nH]nc5c4cc3-c3ccccc3)cc2)CCC1
How it was run: as §1

Measured: log2 fold change

AMMECR1 (UniProt Q9Y4X0)
inactive: lapatinib 0.005 | pictilisib -0.013 | crizotinib -0.011 | [1] -0.027 | duvelisib 0.022 | gandotinib -0.019 | tozasertib 0.039 | doramapimod -0.009 | bafetinib -0.04 | [2] 0.037 | nilotinib -0.005 | [3] -0.025 | dasatinib -0.037 | [4] 0.017 | [5] 0.035 | quisinostat -0.054 | tipifarnib 0.022 | [6] 0.021 | [7] 0.007 | [8] -0.024

ALG1 (UniProt Q9BT22)
inactive: lapatinib 0.061 | pictilisib 0.115 | crizotinib -0.009 | [1] 0.06 | duvelisib 0.005 | gandotinib -0.092 | tozasertib 0.055 | doramapimod 0.008 | bafetinib -0.016 | [2] 0.147 | nilotinib -0.094 | [3] 0.048 | dasatinib -0.017 | [4] 0.173 | [5] 0.005 | quisinostat 0.055 | tipifarnib -0.022 | [6] 0.019 | [7] -0.005 | [8] -0.002

ALDH1L2 (UniProt Q3SY69)
inactive: lapatinib 0.029 | pictilisib -0.01 | crizotinib -0.032 | [1] -0.066 | duvelisib 0.003 | gandotinib 0.039 | tozasertib 0.032 | doramapimod 0.005 | bafetinib -0.029 | [2] 0.083 | nilotinib -0.013 | [3] 0.01 | dasatinib -0.021 | [4] 0.012 | [5] 0.046 | quisinostat -0.027 | tipifarnib 0.012 | [6] 0.026 | [7] 0.05 | [8] -0.042

ALKBH4 (UniProt Q9NXW9)
inactive: lapatinib -0.02 | pictilisib 0.003 | crizotinib 0.04 | [1] -0.055 | duvelisib 0.035 | gandotinib -0.019 | tozasertib 0.047 | doramapimod -0.018 | bafetinib -0.108 | [2] -0.028 | nilotinib -0.053 | [3] -0.05 | dasatinib -0.028 | [4] -0.008 | [5] 0.007 | quisinostat -0.01 | tipifarnib 0.023 | [6] 0.023 | [7] -0.013 | [8] 0.047

Reprinted from the entries so far (2 entries):
ALDH1L2 (UniProt Q3SY69)
inactive: lapatinib 0.029 | pictilisib -0.01 | crizotinib -0.032 | [1] -0.066 | duvelisib 0.003 | gandotinib 0.039 | tozasertib 0.032 | doramapimod 0.005 | bafetinib -0.029 | [2] 0.083 | nilotinib -0.013 | [3] 0.01 | dasatinib -0.021 | [4] 0.012 | [5] 0.046 | quisinostat -0.027 | tipifarnib 0.012 | [6] 0.026 | [7] 0.05 | [8] -0.042

ALKBH4 (UniProt Q9NXW9)
inactive: lapatinib -0.02 | pictilisib 0.003 | crizotinib 0.04 | [1] -0.055 | duvelisib 0.035 | gandotinib -0.019 | tozasertib 0.047 | doramapimod -0.018 | bafetinib -0.108 | [2] -0.028 | nilotinib -0.053 | [3] -0.05 | dasatinib -0.028 | [4] -0.008 | [5] 0.007 | quisinostat -0.01 | tipifarnib 0.023 | [6] 0.023 | [7] -0.013 | [8] 0.047

Next part

ANO6 (UniProt Q4KMQ2)
inactive: lapatinib -0.024 | pictilisib -0.064 | crizotinib 0.001 | [1] -0.002 | duvelisib -0.057 | gandotinib -0.028 | tozasertib -0.029 | doramapimod 0.001 | bafetinib -0.056 | [2] 0.009 | nilotinib -0.046 | [3] 0.01 | dasatinib 0.005 | [4] -0.004 | [5] 0.001 | quisinostat 0.001 | tipifarnib 0.038 | [6] 0.02 | [7] -0.003 | [8] -0.013

ANAPC2 (UniProt Q9UJX6)
inactive: lapatinib -0.031 | pictilisib -0.005 | crizotinib -0.047 | [1] -0.041 | duvelisib 0.013 | gandotinib -0.058 | tozasertib -0.019 | doramapimod 0.003 | bafetinib -0.044 | [2] 0.041 | nilotinib -0.047 | [3] 0.012 | dasatinib -0.017 | [4] -0.021 | [5] 0.024 | quisinostat -0.032 | tipifarnib 0.005 | [6] 0.007 | [7] 0.003 | [8] 0.006

AMPD3 isoform 4 (UniProt Q01432)
inactive: lapatinib 0.037 | pictilisib -0.015 | crizotinib 0.014 | [1] 0.109 | duvelisib -0.053 | gandotinib -0.057 | tozasertib 0.001 | doramapimod 0.002 | bafetinib -0.002 | [2] -0.047 | nilotinib -0.002 | [3] 0.027 | dasatinib 0.014 | [4] -0.021 | [5] -0.013 | quisinostat 0.038 | tipifarnib 0.032 | [6] -0.012 | [7] -0.017 | [8] 0.012

ANP32E (UniProt Q9BTT0)
inactive: lapatinib -0.026 | pictilisib 0.003 | crizotinib 0.007 | [1] -0.017 | duvelisib 0.015 | gandotinib 0.013 | tozasertib 0.041 | doramapimod -0.017 | bafetinib -0.003 | [2] -0.032 | nilotinib 0.075 | [3] 0.025 | dasatinib 0.015 | [4] 0.028 | [5] -0.038 | quisinostat 0.016 | tipifarnib -0.02 | [6] -0.011 | [7] -0.065 | [8] 0.023

ANKZF1 (UniProt Q9H8Y5)
inactive: lapatinib -0.012 | pictilisib 0.029 | crizotinib -0.025 | [1] -0.008 | duvelisib -0.01 | gandotinib -0.03 | tozasertib 0.019 | doramapimod 0.013 | bafetinib 0.007 | [2] 0.036 | nilotinib -0.003 | [3] -0.018 | dasatinib -0.007 | [4] 0.025 | [5] 0.016 | quisinostat -0.023 | tipifarnib -0.047 | [6] 0.021 | [7] 0.008 | [8] -0.021

ANKRD27 (UniProt Q96NW4)
inactive: lapatinib 0.025 | pictilisib -0.026 | crizotinib -0.095 | [1] -0.03 | duvelisib -0.025 | gandotinib 0.049 | tozasertib 0.002 | doramapimod -0.009 | bafetinib -0.059 | [2] 0.022 | nilotinib 0.016 | [3] 0.049 | dasatinib -0.01 | [4] 0.061 | [5] -0.023 | quisinostat -0.177 | tipifarnib -0.067 | [6] 0.05 | [7] 0.025 | [8] -0.033

AP1G2 (UniProt O75843)
inactive: lapatinib 0.068 | pictilisib -0.008 | crizotinib -0.095 | [1] -0.049 | duvelisib -0.02 | gandotinib 0 | tozasertib -0.02 | doramapimod -0.004 | bafetinib 0.026 | [2] 0.039 | nilotinib -0.013 | [3] -0.046 | dasatinib -0.081 | [4] -0.019 | [5] 0.048 | quisinostat -0.006 | tipifarnib 0.063 | [6] 0.005 | [7] -0.012 | [8] -0.125

AP1M1 (UniProt Q9BXS5)
inactive: lapatinib 0.009 | pictilisib -0.008 | crizotinib 0.035 | [1] -0.051 | duvelisib 0.018 | gandotinib 0.024 | tozasertib -0.016 | doramapimod 0.027 | bafetinib -0.021 | [2] 0.016 | nilotinib -0.034 | [3] 0.015 | dasatinib -0.015 | [4] 0.009 | [5] 0.004 | quisinostat 0.028 | tipifarnib 0.007 | [6] -0.013 | [7] -0.014 | [8] 0.021

ANKFY1 isoform 4 (UniProt Q9P2R3)
inactive: lapatinib -0.005 | pictilisib -0.05 | crizotinib -0.081 | [1] -0.005 | duvelisib 0.006 | gandotinib -0.105 | tozasertib -0.005 | doramapimod 0.028 | bafetinib -0.055 | [2] 0.018 | nilotinib 0.019 | [3] -0.023 | dasatinib -0.038 | [4] 0 | [5] 0.016 | quisinostat -0.066 | tipifarnib -0.006 | [6] -0.002 | [7] -0.013 | [8] -0.02

AP4E1 (UniProt Q9UPM8)
inactive: lapatinib 0.034 | pictilisib -0.104 | crizotinib -0.043 | [1] -0.055 | duvelisib 0.03 | gandotinib 0.008 | tozasertib 0.022 | doramapimod -0.005 | bafetinib -0.039 | [2] 0.122 | nilotinib -0.005 | [3] -0.026 | dasatinib 0.021 | [4] 0.019 | [5] 0.007 | quisinostat -0.044 | tipifarnib -0.035 | [6] 0.022 | [7] -0.008 | [8] 0.011

ALG8 (UniProt Q9BVK2)
inactive: lapatinib -0.043 | pictilisib -0.043 | crizotinib 0.017 | [1] -0.211 | duvelisib -0.013 | gandotinib 0 | tozasertib 0.116 | doramapimod -0.06 | bafetinib -0.08 | [2] 0.087 | nilotinib -0.007 | [3] -0.008 | dasatinib -0.051 | [4] -0.077 | [5] 0.02 | quisinostat 0.019 | tipifarnib -0.165 | [6] 0.043 | [7] -0.025 | [8] -0.006

ALAD (UniProt P13716)
inactive: lapatinib 0.013 | pictilisib -0.007 | crizotinib -0.001 | [1] 0.002 | duvelisib 0.023 | gandotinib 0.031 | tozasertib -0.002 | doramapimod -0.008 | bafetinib 0.038 | [2] -0.027 | nilotinib 0.002 | [3] -0.001 | dasatinib 0.028 | [4] 0.008 | [5] -0.044 | quisinostat -0.017 | tipifarnib -0.02 | [6] -0.007 | [7] -0.028 | [8] 0.013
